Reference: the supplement of paper PMC10849652
The list shows a part of the results. Residues, ends and D or L forms follow the SMILES beside them. *: point of attachment. Cbz = O=C(OCc1ccccc1)*

Chains of the proteins cited; added tags and fusions are not shown. Lines headed by an entry give the natural chain unless they say otherwise; changes in a name come on top.
UniProt O75947: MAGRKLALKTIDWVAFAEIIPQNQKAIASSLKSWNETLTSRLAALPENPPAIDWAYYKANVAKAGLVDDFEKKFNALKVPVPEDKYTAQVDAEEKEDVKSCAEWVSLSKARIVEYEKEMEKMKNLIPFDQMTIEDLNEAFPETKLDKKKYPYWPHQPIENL
UniProt Q9UBL3, whole entry, looked up: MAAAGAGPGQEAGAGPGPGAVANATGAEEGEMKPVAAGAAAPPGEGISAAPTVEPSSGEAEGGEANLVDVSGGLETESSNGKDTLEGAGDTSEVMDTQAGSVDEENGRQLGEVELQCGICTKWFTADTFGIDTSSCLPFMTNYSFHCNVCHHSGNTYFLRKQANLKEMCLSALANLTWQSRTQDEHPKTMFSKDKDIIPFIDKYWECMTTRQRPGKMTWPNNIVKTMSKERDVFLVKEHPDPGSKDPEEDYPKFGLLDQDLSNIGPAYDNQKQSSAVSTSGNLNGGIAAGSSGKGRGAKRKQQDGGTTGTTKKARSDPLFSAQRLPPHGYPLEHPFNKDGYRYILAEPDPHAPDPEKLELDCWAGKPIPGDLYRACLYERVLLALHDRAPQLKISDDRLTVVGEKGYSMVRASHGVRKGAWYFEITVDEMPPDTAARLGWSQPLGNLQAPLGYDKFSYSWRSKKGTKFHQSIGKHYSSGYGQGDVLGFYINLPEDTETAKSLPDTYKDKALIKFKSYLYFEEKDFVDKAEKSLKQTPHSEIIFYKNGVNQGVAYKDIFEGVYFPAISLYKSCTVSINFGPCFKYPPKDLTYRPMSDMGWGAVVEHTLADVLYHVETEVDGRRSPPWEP
UniProt P21283, whole entry, looked up: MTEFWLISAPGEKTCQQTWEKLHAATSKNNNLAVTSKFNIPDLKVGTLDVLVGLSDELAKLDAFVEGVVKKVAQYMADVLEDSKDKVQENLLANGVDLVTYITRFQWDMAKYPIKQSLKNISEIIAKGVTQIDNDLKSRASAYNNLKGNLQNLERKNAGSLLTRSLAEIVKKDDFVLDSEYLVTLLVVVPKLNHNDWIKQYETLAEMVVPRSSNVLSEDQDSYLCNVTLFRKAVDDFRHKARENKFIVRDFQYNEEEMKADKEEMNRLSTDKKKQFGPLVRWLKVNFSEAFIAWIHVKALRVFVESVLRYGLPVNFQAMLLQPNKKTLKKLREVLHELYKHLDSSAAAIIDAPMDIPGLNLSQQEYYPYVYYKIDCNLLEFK
UniProt P56385: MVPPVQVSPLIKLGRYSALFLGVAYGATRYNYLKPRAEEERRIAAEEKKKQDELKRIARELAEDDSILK
UniProt Q9NQ11: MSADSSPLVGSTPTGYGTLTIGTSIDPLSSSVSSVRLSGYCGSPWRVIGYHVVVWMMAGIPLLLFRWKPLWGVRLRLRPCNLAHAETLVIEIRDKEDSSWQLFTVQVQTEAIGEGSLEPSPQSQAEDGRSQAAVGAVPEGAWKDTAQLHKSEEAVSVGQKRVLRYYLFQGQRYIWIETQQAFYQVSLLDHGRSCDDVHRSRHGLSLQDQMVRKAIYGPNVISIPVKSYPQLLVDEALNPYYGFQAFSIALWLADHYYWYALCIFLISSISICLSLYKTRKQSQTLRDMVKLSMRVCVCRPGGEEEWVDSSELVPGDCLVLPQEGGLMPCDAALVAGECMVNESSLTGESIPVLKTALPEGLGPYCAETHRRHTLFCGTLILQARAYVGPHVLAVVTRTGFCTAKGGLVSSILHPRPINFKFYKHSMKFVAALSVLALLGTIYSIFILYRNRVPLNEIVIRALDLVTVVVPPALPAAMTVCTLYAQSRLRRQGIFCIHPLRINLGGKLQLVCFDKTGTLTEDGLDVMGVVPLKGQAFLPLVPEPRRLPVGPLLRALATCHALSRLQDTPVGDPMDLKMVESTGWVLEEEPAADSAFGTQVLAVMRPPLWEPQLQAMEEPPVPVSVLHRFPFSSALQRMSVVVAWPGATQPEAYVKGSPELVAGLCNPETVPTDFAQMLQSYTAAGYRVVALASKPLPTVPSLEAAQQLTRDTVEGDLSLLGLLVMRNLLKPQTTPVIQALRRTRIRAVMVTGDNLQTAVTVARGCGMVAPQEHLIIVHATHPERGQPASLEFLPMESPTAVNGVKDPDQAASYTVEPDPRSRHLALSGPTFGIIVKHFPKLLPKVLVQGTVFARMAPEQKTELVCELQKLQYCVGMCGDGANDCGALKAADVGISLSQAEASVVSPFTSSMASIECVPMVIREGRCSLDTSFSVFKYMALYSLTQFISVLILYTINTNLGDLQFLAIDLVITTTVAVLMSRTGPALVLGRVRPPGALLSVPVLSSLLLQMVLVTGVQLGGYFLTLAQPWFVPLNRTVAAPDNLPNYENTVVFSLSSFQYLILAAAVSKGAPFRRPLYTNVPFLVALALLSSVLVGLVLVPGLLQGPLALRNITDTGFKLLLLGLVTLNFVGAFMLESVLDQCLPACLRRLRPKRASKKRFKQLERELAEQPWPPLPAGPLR
UniProt Q7Z3C6: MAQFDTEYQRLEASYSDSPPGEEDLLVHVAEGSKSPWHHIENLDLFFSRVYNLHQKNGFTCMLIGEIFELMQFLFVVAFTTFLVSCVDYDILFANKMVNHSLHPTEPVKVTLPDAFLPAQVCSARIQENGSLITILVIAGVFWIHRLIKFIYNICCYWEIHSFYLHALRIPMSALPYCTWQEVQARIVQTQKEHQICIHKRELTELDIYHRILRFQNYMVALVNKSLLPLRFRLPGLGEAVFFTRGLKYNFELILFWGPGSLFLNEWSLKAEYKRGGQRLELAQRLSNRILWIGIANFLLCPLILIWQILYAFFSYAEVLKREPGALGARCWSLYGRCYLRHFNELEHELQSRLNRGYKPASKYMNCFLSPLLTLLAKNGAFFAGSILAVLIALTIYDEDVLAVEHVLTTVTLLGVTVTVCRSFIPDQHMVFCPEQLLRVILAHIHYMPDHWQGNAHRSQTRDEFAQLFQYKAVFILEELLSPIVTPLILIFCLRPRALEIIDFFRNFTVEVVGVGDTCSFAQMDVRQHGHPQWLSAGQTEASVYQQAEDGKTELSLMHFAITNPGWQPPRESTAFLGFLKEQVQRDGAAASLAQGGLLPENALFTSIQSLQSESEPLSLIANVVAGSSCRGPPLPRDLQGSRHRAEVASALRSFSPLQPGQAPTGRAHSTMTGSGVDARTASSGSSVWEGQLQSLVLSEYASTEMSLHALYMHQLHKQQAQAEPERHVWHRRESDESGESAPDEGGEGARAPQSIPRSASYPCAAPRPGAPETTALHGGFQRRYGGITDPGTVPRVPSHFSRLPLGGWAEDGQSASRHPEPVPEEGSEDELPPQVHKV
UniProt P54707, whole entry, looked up: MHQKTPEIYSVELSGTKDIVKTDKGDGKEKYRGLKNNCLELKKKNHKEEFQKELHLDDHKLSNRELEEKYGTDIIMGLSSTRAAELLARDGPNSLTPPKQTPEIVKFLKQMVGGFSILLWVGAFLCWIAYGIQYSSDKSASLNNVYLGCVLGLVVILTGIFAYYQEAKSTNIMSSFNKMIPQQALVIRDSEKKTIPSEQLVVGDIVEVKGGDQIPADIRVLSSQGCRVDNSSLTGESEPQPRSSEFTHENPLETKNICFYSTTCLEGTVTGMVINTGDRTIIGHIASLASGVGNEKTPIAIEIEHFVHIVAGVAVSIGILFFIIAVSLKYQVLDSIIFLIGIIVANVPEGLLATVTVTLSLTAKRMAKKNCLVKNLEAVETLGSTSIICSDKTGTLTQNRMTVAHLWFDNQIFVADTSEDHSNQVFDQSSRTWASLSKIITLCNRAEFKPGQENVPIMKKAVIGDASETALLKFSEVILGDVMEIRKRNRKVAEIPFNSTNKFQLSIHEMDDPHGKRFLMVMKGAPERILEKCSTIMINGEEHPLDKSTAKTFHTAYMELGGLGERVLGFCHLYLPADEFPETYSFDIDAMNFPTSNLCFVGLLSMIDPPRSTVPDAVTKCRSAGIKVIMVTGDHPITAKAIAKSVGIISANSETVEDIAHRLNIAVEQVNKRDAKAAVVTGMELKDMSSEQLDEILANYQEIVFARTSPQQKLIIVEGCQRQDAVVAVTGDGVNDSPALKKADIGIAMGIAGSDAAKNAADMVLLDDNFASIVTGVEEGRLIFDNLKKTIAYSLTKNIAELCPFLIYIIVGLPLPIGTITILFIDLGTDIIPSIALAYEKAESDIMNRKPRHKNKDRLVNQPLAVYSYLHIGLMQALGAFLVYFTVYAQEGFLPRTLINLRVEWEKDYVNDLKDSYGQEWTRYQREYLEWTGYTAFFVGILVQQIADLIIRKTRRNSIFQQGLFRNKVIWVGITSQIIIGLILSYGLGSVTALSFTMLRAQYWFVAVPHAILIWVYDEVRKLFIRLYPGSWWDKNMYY
UniProt O00244: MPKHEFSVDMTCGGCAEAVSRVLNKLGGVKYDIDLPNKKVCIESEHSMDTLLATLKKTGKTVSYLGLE
UniProt Q9BZE9, whole entry, looked up: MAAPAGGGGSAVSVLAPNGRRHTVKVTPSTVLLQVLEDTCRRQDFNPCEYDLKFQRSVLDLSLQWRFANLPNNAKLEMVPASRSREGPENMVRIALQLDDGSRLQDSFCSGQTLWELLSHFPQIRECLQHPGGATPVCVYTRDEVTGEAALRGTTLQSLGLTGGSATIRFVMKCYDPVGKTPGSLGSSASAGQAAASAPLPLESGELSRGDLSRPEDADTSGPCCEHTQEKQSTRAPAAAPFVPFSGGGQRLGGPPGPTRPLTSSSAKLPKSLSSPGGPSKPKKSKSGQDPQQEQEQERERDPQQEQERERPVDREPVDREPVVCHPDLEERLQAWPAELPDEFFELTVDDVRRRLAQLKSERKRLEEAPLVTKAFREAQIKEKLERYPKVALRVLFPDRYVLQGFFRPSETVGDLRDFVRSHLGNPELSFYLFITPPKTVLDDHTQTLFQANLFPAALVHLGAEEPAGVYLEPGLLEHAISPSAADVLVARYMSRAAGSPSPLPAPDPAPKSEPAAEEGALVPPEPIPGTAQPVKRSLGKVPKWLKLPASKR
UniProt P40616: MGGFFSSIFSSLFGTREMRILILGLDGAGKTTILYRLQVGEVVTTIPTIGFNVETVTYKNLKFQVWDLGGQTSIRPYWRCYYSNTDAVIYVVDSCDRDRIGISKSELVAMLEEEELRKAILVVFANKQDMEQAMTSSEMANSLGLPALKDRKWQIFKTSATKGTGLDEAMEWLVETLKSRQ
UniProt Q9UII2: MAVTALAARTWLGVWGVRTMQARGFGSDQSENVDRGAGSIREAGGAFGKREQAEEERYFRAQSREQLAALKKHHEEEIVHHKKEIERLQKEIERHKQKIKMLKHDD
UniProt Q13733, whole entry, looked up: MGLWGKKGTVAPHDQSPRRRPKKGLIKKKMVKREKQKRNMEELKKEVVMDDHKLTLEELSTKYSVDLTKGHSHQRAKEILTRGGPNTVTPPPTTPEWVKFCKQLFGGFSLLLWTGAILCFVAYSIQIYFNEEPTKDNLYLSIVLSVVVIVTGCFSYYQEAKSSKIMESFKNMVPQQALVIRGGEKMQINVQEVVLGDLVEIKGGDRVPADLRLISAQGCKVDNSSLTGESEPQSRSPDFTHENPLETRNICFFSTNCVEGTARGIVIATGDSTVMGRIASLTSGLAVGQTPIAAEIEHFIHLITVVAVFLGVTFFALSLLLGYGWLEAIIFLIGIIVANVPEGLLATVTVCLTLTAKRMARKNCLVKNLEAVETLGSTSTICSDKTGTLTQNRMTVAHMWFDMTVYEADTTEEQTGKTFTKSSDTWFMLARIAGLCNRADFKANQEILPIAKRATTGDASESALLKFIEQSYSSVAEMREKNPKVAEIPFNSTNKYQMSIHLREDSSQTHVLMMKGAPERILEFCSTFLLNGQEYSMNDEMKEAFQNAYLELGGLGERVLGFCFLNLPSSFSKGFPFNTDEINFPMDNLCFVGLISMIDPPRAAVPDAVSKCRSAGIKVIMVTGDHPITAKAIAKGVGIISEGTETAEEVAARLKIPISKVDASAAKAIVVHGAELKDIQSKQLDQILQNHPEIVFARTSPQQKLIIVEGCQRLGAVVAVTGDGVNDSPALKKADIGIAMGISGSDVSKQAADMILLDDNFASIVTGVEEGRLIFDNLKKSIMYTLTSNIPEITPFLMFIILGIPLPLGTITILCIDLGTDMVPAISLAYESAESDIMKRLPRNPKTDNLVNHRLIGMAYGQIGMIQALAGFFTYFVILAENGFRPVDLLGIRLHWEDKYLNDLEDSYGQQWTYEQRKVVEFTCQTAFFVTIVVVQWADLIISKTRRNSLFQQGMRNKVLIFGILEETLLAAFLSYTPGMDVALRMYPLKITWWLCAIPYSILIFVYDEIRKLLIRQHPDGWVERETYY

What was measured:
Test in all cases: log2 fold change, soluble protein after heating vs DMSO (PISA); higher = thermal stabilisation; K562 cells, 10 uM, 30 min; active = over 0.2 and 3.5 SD of the protein, either way, in both replicates (recomputed)
[1] = compound: C#Cc1cccc(Nc2ncnc3cc(OCCOC)c(OCCOC)cc23)c1 [erlotinib]
Outline: (§1)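 Aliquots of K562 cells (2×10^6 cells/mL) treated with 10 μM compound for 30 min were heated for 3 min over 48°C-58°C. After pooling and extraction in PBS with 0.5% NP-40 at 4°C, soluble protein from a 21,000xg, 90 min spin was quantified by TMTpro 16plex LC-MS/MS with channel sums equalised. Thermal stability is expressed against control samples, from duplicates, as a log2 fold change.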

[2] = compound: C/C(=N\NC(=O)C1=CC(=CC=C1)S(=O)(=O)N2CCOCC2)/C3=C(C=CC(=C3)Cl)O
Outline: as §1

[3] = compound: C1=CC(=C(C=C1Cl)C2=NC3=NC=CN=C3C(=N2)NC4=CC=NC=C4)F
Outline: as §1

[4] = compound: C1=CC(=CC=C1C2=NC3=C(N2)C=C(C=C3)C(=O)N)OC4=CC=C(C=C4)Cl
Outline: as §1

[5] = compound: C1=CC2=C(C=CC(=C2)/C=C\3/C(=O)NC(=NCC4=CC=CS4)S3)N=C1
Outline: as §1

[6] = compound: C1=CC2=NC=CN=C2C=C1/C=C/3\C(=O)NC(=O)S3
Outline: as §1

[7] = compound: C1=CC=C(C=C1)C2=NC(=C(N2)C3=CC=NC=C3)C4=CC(=C(C=C4)Cl)O
Outline: as §1

[8] = compound: C1=CC=C2C(=C1)C3=NNC4=CC=CC(=C43)C2=O
Outline: as §1

[9] = compound: C1CCN(C1)C(=O)NC2=CC=CC(=C2)NC3=NC=C(C(=N3)NCCC4=CN=CN4)Br
Outline: as §1

[10] = compound: C1CN(CCC1(CC2=CC=C(C=C2)Cl)N)C3=NC=NC4=C3C=CN4
Outline: as §1

[11] = compound: C1COCCN1CCN2C3=CC=CC=C3N=C2NC(=O)C4=CC(=CC=C4)[N+](=O)[O-] [IRAK-1-4 Inhibitor I]
Outline: as §1

[12] = compound: C=CC(=O)N1CCC[C@@H](n2nc(-c3ccc(Oc4ccccc4)cc3)c3c(N)ncnc32)C1 [ibrutinib]
Outline: as §1

[13] = compound: CC(=O)c1cnc2ccc(-c3cc(Cl)c(O)c(Cl)c3)nc2c1N[C@H]1CC[C@H](CN(C)C)CC1
Outline: as §1

[14] = compound: CC(C)(C)Cn1c(N)nc2ccc(-c3[nH]c(C(C)(C)C)nc3-c3ccc(F)cc3)nc21 [ralimetinib]
Outline: as §1

[15] = compound: CC(C)(O)CC(=O)NCCn1ccc2ncnc(Nc3ccc(Oc4cccc(C(F)(F)F)c4)c(Cl)c3)c21
Outline: as §1

[16] = compound: CC(C)C1=C2N=C(C=C(N2N=C1)NCC3=CC=CC=C3)NCCCCCCN
Outline: as §1

[17] = compound: CC(C)C[C@@H](C=O)NC(=O)[C@H](CC(C)C)NC(=O)[C@H](CC(C)C)NC(=O)OCc1ccccc1
Outline: as §1

[18] = compound: CC(C)N(C[C@H]1O[C@@H](n2cnc3c(N)ncnc32)[C@H](O)[C@@H]1O)[C@H]1C[C@@H](CCc2nc3cc(C(C)(C)C)ccc3[nH]2)C1 [pinometostat]
Outline: as §1

[19] = compound: CC1=C(C(CC(=O)N1)C2=CC=C(C=C2)C(F)(F)F)C(=O)NC3=C(C=C4C(=C3)C=NN4)F
Outline: as §1

[20] = compound: CC1=C(C2=C(C=C1)C(=O)C3=CC=CC=C3N2CCCN)C
Outline: as §1

| Target | log2 fold change [1] | log2 fold change [2] | log2 fold change [3] | log2 fold change [4] | log2 fold change [5] | log2 fold change [6] | log2 fold change [7] | log2 fold change [8] | log2 fold change [9] | log2 fold change [10] | log2 fold change [11] | log2 fold change [12] | log2 fold change [13] | log2 fold change [14] | log2 fold change [15] | log2 fold change [16] | log2 fold change [17] | log2 fold change [18] | log2 fold change [19] | log2 fold change [20] |
| --- | --- | --- | --- | --- | --- | --- | --- | --- | --- | --- | --- | --- | --- | --- | --- | --- | --- | --- | --- | --- |
| ATP5PD (UniProt O75947) | inactive: -0.04 | inactive: -0.004 | inactive: 0.083 | inactive: -0.005 | inactive: -0.002 | inactive: 0.013 | inactive: 0.02 | inactive: 0.008 | inactive: -0.006 | inactive: 0.02 | inactive: 0.046 | inactive: 0.015 | inactive: 0.065 | inactive: 0.007 | inactive: 0 | inactive: 0.034 | inactive: -0.068 | inactive: -0.038 | inactive: 0.018 | inactive: 0.006 |
| ASH2L (UniProt Q9UBL3) | inactive: -0.021 | inactive: 0.025 | inactive: 0.019 | inactive: -0.062 | inactive: -0.012 | inactive: 0.022 | inactive: 0.001 | inactive: -0.029 | inactive: -0.004 | inactive: 0.052 | inactive: -0.022 | inactive: -0.048 | inactive: -0.046 | inactive: 0.004 | inactive: -0.018 | inactive: 0.016 | inactive: -0.004 | inactive: -0.013 | – | inactive: -0.044 |
| ATP6V1C1 (UniProt P21283) | inactive: -0.103 | inactive: 0.02 | inactive: -0.135 | inactive: -0.021 | inactive: -0.011 | inactive: 0.046 | inactive: -0.244 | inactive: 0.045 | inactive: -0.067 | inactive: -0.227 | inactive: -0.102 | inactive: -0.041 | inactive: -0.074 | inactive: 0.036 | inactive: 0.039 | inactive: -0.008 | inactive: 0.052 | inactive: 0.068 | – | inactive: -0.037 |
| ATP5ME (UniProt P56385) | inactive: 0.013 | inactive: 0.037 | inactive: 0.136 | inactive: -0.007 | inactive: 0.085 | inactive: 0.051 | inactive: 0.023 | inactive: 0.002 | inactive: -0.051 | inactive: 0.013 | inactive: -0.003 | inactive: -0.002 | inactive: -0.019 | inactive: -0.04 | inactive: -0.044 | inactive: 0.031 | inactive: 0.011 | inactive: -0.036 | – | inactive: 0.039 |
| ATP13A2 (UniProt Q9NQ11) | inactive: 0.047 | inactive: 0.012 | inactive: 0.011 | inactive: 0.096 | inactive: 0.024 | inactive: 0.099 | inactive: 0.01 | inactive: -0.042 | inactive: 0.035 | inactive: 0.082 | inactive: 0.04 | inactive: 0.074 | inactive: 0.007 | inactive: -0.033 | inactive: -0.03 | active: -0.511 | inactive: 0.011 | inactive: 0.063 | – | inactive: 0.181 |
| ATG9A (UniProt Q7Z3C6) | inactive: 0.044 | inactive: 0.03 | inactive: 0.057 | inactive: -0.003 | inactive: 0.047 | inactive: 0.021 | inactive: 0.045 | inactive: -0.005 | inactive: -0.026 | inactive: -0.023 | inactive: 0 | inactive: 0.081 | inactive: -0.091 | inactive: -0.023 | inactive: -0.056 | inactive: -0.176 | inactive: 0.06 | inactive: 0.015 | – | inactive: 0.038 |
| ATP12A isoform 2 (UniProt P54707) | inactive: 0.01 | inactive: -0.002 | inactive: 0.025 | inactive: 0.014 | inactive: 0.007 | inactive: 0.026 | inactive: 0.025 | inactive: -0.049 | inactive: -0.051 | inactive: 0.05 | inactive: 0.013 | inactive: 0.009 | inactive: -0.033 | inactive: -0.031 | inactive: -0.036 | inactive: 0.162 | inactive: -0.005 | inactive: -0.03 | – | inactive: 0.086 |
| ATAD3B (UniProt Q5T9A4) | inactive: -0.027 | inactive: -0.018 | inactive: -0.128 | inactive: -0.006 | inactive: -0.005 | inactive: -0.002 | inactive: -0.06 | inactive: 0.066 | inactive: 0.01 | inactive: -0.091 | inactive: -0.05 | inactive: 0.045 | inactive: -0.01 | inactive: 0.122 | inactive: -0.011 | active: -0.472 | inactive: 0.066 | inactive: 0.276 | – | inactive: 0.024 |
| ATP13A3 (UniProt Q9H7F0) | inactive: 0.043 | inactive: -0.046 | inactive: 0.05 | inactive: 0.018 | inactive: 0.016 | inactive: 0.038 | inactive: -0.006 | inactive: -0.028 | inactive: 0.017 | inactive: 0.049 | inactive: 0.043 | inactive: -0.005 | inactive: 0.004 | inactive: -0.032 | inactive: -0.136 | inactive: -0.199 | inactive: 0.073 | inactive: -0.007 | – | inactive: -0.035 |
| ATOX1 (UniProt O00244) | inactive: -0.033 | inactive: 0.307 | inactive: 0.141 | inactive: 0.068 | inactive: -0.089 | inactive: 0.074 | inactive: 0.242 | inactive: 0.112 | inactive: -0.061 | inactive: 0.024 | inactive: 0.018 | inactive: 0.01 | inactive: 0.154 | inactive: 0.23 | inactive: -0.005 | inactive: 0.109 | inactive: -0.198 | inactive: -0.153 | – | inactive: 0.099 |
| ATP11B (UniProt Q9Y2G3) | inactive: -0.013 | inactive: 0 | inactive: 0.017 | inactive: 0.002 | inactive: -0.009 | inactive: -0.003 | inactive: -0.009 | inactive: -0.04 | inactive: 0.002 | inactive: 0.06 | inactive: 0.029 | inactive: 0.035 | inactive: 0.044 | inactive: -0.029 | inactive: 0.021 | inactive: 0 | inactive: 0.002 | inactive: -0.018 | inactive: -0.003 | inactive: 0.018 |
| ASPSCR1 isoform 2 (UniProt Q9BZE9) | inactive: 0.001 | inactive: 0.096 | inactive: -0.003 | inactive: 0.012 | inactive: 0.082 | inactive: -0.015 | inactive: -0.028 | inactive: 0.001 | inactive: -0.034 | inactive: -0.003 | inactive: 0.01 | inactive: 0.017 | inactive: -0.016 | inactive: -0.02 | inactive: -0.062 | inactive: -0.002 | inactive: 0.061 | inactive: 0.054 | inactive: -0.036 | inactive: -0.022 |
| ARL1 (UniProt P40616) | inactive: 0.049 | inactive: 0.063 | inactive: 0.072 | inactive: -0.091 | inactive: 0.027 | inactive: -0.028 | inactive: 0.13 | inactive: 0.084 | inactive: -0.076 | inactive: 0.055 | inactive: 0.007 | inactive: -0.031 | inactive: -0.06 | inactive: 0.029 | inactive: -0.09 | inactive: 0.044 | inactive: -0.049 | inactive: -0.039 | – | inactive: 0.066 |
| ATP1A1 (UniProt P05023) | inactive: 0.003 | inactive: 0.02 | inactive: 0.017 | inactive: -0.012 | inactive: -0.036 | inactive: 0.012 | inactive: -0.017 | inactive: -0.032 | inactive: -0.015 | inactive: 0.057 | inactive: 0.071 | inactive: 0.03 | inactive: 0.007 | inactive: -0.029 | inactive: -0.006 | inactive: 0.182 | inactive: -0.002 | inactive: -0.006 | – | inactive: 0.009 |
| ATP2B1 isoform 1 (UniProt P20020) | inactive: 0.027 | inactive: 0.019 | inactive: 0.03 | inactive: -0.004 | inactive: 0.011 | inactive: 0.004 | inactive: 0.001 | inactive: -0.069 | inactive: -0.008 | inactive: 0.115 | inactive: 0.012 | inactive: 0.032 | inactive: -0.027 | inactive: -0.043 | inactive: -0.007 | inactive: 0.13 | inactive: -0.014 | inactive: -0.035 | inactive: -0.004 | inactive: 0.073 |
| ATP5IF1 (UniProt Q9UII2) | inactive: 0.001 | inactive: -0.122 | inactive: 0.032 | inactive: -0.005 | inactive: -0.104 | inactive: 0.007 | inactive: -0.051 | inactive: 0.153 | inactive: 0.053 | inactive: 0.032 | inactive: 0.121 | inactive: 0.012 | inactive: 0.018 | inactive: -0.1 | inactive: 0.099 | inactive: 0.056 | inactive: -0.048 | inactive: -0.06 | – | inactive: -0.006 |
| ATP1A4 (UniProt Q13733) | inactive: -0.076 | inactive: 0.033 | inactive: 0.183 | inactive: 0.046 | inactive: -0.051 | inactive: 0.063 | inactive: -0.003 | inactive: -0.112 | inactive: -0.009 | inactive: -0.015 | inactive: 0.002 | inactive: -0.013 | inactive: 0.032 | inactive: -0.025 | inactive: -0.025 | inactive: 0.121 | inactive: -0.033 | inactive: -0.017 | – | inactive: 0.03 |

Individual results from the results shown.
Value of ATP11B (UniProt Q9Y2G3) under log2 fold change [5]: inactive: -0.009
Value of ATP6V1C1 (UniProt P21283) under log2 fold change [8]: inactive: 0.045
